Experimental data taken from patent publication US20230039401A1, “COMPOSITIONS AND METHODS FOR TREATING NRP2-ASSOCIATED DISEASES” (aTyr Pharma, Inc., priority 2018, published 2023).
These are yes or no findings as the source states them, for the method shown. Some binding calls cover weakened binding; strength is not graded here. Where a sequence is shown, tags or fusion partners need not be part of it.

Tests used:
Fc-HRS(2-60) = test: SPR, Fc-HRS(2-60) immobilised, 50 nM mouse NRP2 as analyte
[1] = biological target: NRP2-Fc (R&D Systems #2215-N2) (human) (UniProt O60462); test: SPR
[2] = biological target: NRP2-Fc (R&D Systems #2215-N2) (human) (UniProt O60462); test: SPR (column: Binding to NRP2 observed by SPR)
[3] = biological target: T1, endogenous soluble NRP2 in human serum (human) (UniProt O60462); test: sandwich complex ELISA on human serum: capture of HRS and detection of NRP2, and the reverse
T1 sequence (looked up): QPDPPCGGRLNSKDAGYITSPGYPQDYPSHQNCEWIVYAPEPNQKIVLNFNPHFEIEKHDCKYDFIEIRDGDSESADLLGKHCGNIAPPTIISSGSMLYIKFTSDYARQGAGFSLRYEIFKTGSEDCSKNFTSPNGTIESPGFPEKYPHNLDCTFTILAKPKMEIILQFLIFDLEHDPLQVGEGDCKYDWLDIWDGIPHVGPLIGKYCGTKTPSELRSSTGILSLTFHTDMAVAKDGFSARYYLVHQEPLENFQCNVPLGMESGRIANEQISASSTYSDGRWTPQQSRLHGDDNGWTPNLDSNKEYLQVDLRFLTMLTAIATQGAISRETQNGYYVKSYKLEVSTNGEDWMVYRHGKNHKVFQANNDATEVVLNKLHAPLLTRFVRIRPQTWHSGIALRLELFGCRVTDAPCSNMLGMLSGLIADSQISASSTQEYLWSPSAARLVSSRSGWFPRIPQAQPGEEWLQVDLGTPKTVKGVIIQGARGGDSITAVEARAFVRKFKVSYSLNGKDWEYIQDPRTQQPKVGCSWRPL

[4] = biological target: T1, endogenous soluble NRP2 in human serum (human); test: complex ELISA on human serum, NRP2 capture antibody, HRS N-terminal detection antibody
[5] = biological target: T1, endogenous soluble NRP2 in human serum (human); test: HRS:NRP2 complex ELISA (MSD) on human serum, capture with NRP2 monoclonal antibody, detection with HRS N-terminal antibody (HARS_NT)
[6] = biological target: T1, endogenous soluble NRP2 in human serum (human); test: complex ELISA on human serum, NRP2 capture antibody, HARS_NT detection antibody
[7] = biological target: T1, endogenous soluble NRP2 in human serum (human); test: sandwich complex ELISA on human serum, several antibody pairings
[8] = biological target: T1, endogenous soluble NRP2 in human serum (human); test: HRS:NRP2 complex ELISA (MSD) on human serum, capture with HRS C-terminal antibody, detection with NRP2 antibody
[9] = biological target: T1, endogenous soluble NRP2 in human serum (human); test: HRS:NRP2 complex ELISA (MSD) on human serum, capture with NRP2 antibody, detection with HRS N-terminal antibody
[10] = biological target: T1, endogenous soluble NRP2 in human serum (human); test: HRS:NRP2 complex ELISA (MSD) on human serum, capture with NRP2 antibody, detection with HRS C-terminal antibody
[11] = biological target: T1, endogenous soluble NRP2 in human serum (human); test: HRS:NRP2 complex ELISA (MSD) on human serum, capture with HRS N-terminal antibody, detection with NRP2 antibody

Measured: binding

B1: Mouse NRP2-Fc (R&D Systems #7988-N2) (Fc fusion, UniProt O35375 23-864, looked up, not shown: a dimerising Fc or GST)
chain: QQDPPCGGRLNSKDAGYITSPGYPQDYPSHQNCEWIVYAPEPNQKIVLNFNPHFEIEKHDCKYDFIEIRDGDSESADLLGKHCGNIAPPTIISSGSVLYIKFTSDYARQGAGFSLRYEIFKTGSEDCSKNFTSPNGTIESPGFPEKYPHNLDCTFTILAKPRMEIILQFLTFDLEHDPLQVGEGDCKYDWLDIWDGIPHVGPLIGKYCGTKTPSKLRSSTGILSLTFHTDMAVAKDGFSARYYLIHQEPPENFQCNVPLGMESGRIANEQISASSTFSDGRWTPQQSRLHGDDNGWTPNLDSNKEYLQVDLRFLTMLTAIATQGAISRETQKGYYVKSYKLEVSTNGEDWMVYRHGKNHKIFQANNDATEVVLNKLHMPLLTRFIRIRPQTWHLGIALRLELFGCRVTDAPCSNMLGMLSGLIADTQISASSTREYLWSPSAARLVSSRSGWFPRNPQAQPGEEWLQVDLGTPKTVKGVIIQGARGGDSITAVEARAFVRKFKVSYSLNGKDWEYIQDPRTQQTKLFEGNMHYDTPDIRRFDPVPAQYVRVYPERWSPAGIGMRLEVLGCDWTDSKPTVETLGPTVKSEETTTPYPMDEDATECGENCSFEDDKDLQLPSGFNCNFDFPEETCGWVYDHAKWLRSTWISSANPNDRTFPDDKNFLKLQSDGRREGQYGRLISPPVHLPRSPVCMEFQYQAMGGHGVALQVVREASQESKLLWVIREDQGSEWKHGRIILPSYDMEYQIVFEGVIGKGRSGEISIDDIRISTDVPLENCMEPISAFAGEDFKVDIPETHGGEGYEDEIDDEYEGDWSNSSSSTSGAGDPSSGKEKSWLYTLDP
binds: Fc-HRS(2-60)

B2: Mouse SEMA3F-Fc (R&D Systems #3237-S3) (Fc fusion, UniProt O88632 19-785, looked up, not shown: a dimerising Fc or GST)
chain: ATPIQDQLPATPRVRLSFKELKATGTAHFFNFLLNTTDYRILLKDEDHDRMYVGSKDYVLSLDLHDINREPLIIHWAASPQRIEECILSGKDGNGECGNFVRLIQPWNRTHLYVCGTGAYNPMCTYVNRGRRAQALPWTQMQVVRGRGSRATDGADRPTPTAPRQDYIFYLEPEKLESGKGKCPYDPKLDTASALINEELYAGVYIDFMGTDAAIFRTLGKQTAMRTDQYNSRWLNDPSFIHAELIPDSAERNDDKLYFFFRERSAEAPQNPAVYARIGRICLNDDGGHCCLVNKWSTFLKARLVCSVPGEDGIETHFDELQDVFVQQTQDVRNPVIYAVFTSSGSVFRGSAVCVYSMADIRMVFNGPFAHKEGPNYQWMPFSGKMPYPRPGTCPGGTFTPSMKSTKDYPDEVINFMRTHPLMYQAVYPLQRRPLVVRTGAPYRLTTVAVDQVDAADGRYEVLFLGTDRGTVQKVIVLPKDDQEVEELMLEEVEVFKEPAPVKTMTISSKRQQLYVASAVGVTHLSLHRCQAYGAACADCCLARDPYCAWDGQACSRYTASSKRRSRRQDVRHGNPIRQCRGFNSNANKNAVESVQYGVAGSAAFLECQPRSPQATVKWLFQRDPSDRRREIRAEDRFLRTEQGLLLRALQLGDRGLYSCTATENNFKHIVTRVQLHVLGRDAVHAALFPPLAVSVPPPPGTGPPTPPYQELAQLLAQPEVGLIHQYCQGYWRHVPPRPREAPGALRPPELQDQKKPRNRRHHPPDT
binds: [1] | [2]

B3: endogenous circulating human HRS (histidyl-tRNA synthetase) in serum (enzyme)
chain: AERAALEELVKLQGERVRGLKQQKASAELIEEEVAKLLKLKAQLGPDESKQKFVLKTPKGTRDYSPRQMAVREKVFDVIIRCFKRHGAEVIDTPVFELKETLMGKYGEDSKLIYDLKDQGGELLSLRYDLTVPFARYLAMNKLTNIKRYHIAKVYRRDNPAMTRGRYREFYQCDFDIAGNFDPMIPDAECLKIMCEILSSLQIGDFLVKVNDRRILDGMFAICGVSDSKFRTICSSVDKLDKVSWEEVKNEMVGEKGLAPEVADRIGDYVQQHGGVSLVEQLLQDPKLSQNKQALEGLGDLKLLFEYLTLFGIDDKISFDLSLARGLDYYTGVIYEAVLLQTPAQAGEEPLGVGSVAAGGRYDGLVGMFDPKGRKVPCVGLSIGVERIFSIVEQRLEALEEKIRTTETQVLVASAQKKLLEERLKLVSELWDAGIKAELLYKKNPKLLNQLQYCEEAGIPLVAIIGEQELKDGVIKLRSVTSREEVDVRREDLVEEIKRRTGQPLCIC
not listed: Fc-HRS(2-60) | [1] | [2]
binds: all other assays above

B4: SEMA3C-Fc (R&D Systems #5570-S3) (Fc fusion, human, UniProt Q99985 21-738, looked up, not shown: a dimerising Fc or GST)
chain: GSSQPQARVYLTFDELRETKTSEYFSLSHHPLDYRILLMDEDQDRIYVGSKDHILSLNINNISQEALSVFWPASTIKVEECKMAGKDPTHGCGNFVRVIQTFNRTHLYVCGSGAFSPVCTYLNRGRRSEDQVFMIDSKCESGKGRCSFNPNVNTVSVMINEELFSGMYIDFMGTDAAIFRSLTKRNAVRTDQHNSKWLSEPMFVDAHVIPDGTDPNDAKVYFFFKEKLTDNNRSTKQIHSMIARICPNDTGGLRSLVNKWTTFLKARLVCSVTDEDGPETHFDELEDVFLLETDNPRTTLVYGIFTTSSSVFKGSAVCVYHLSDIQTVFNGPFAHKEGPNHQLISYQGRIPYPRPGTCPGGAFTPNMRTTKEFPDDVVTFIRNHPLMYNSIYPIHKRPLIVRIGTDYKYTKIAVDRVNAADGRYHVLFLGTDRGTVQKVVVLPTNNSVSGELILEELEVFKNHAPITTMKISSKKQQLYVSSNEGVSQVSLHRCHIYGTACADCCLARDPYCAWDGHSCSRFYPTGKRRSRRQDVRHGNPLTQCRGFNLKAYRNAAEIVQYGVKNNTTFLECAPKSPQASIKWLLQKDKDRRKEVKLNERIIATSQGLLIRSVQGSDQGLYHCIATENSFKQTIAKINFKVLDSEMVAVVTDKWSPWTWASSVRALPFHPKDIMGAFSHSEMQMINQYCKDTRQQHQQGDESQKMRGDYGKLKALINS
binds: [1] | [2]
